# Measured values taken from PubChem BioAssay AID504834 (National Center for Advancing Translational Sciences (NCATS), 2011).
# The campaign covered roughly 320,000 compounds. About 22,000 (6.9%) were called active. The shares of active, inactive and inconclusive entries below differ from those in the screen. The call rests on the fitted dose curve; in most records, active means well fitted inhibition curve with a large enough effect; inconclusive means small, poorly fitted or top-dose-only effect, or another doubt; inactive means no such curve, though single readings can be large or run the other way. Where the call is inconclusive, the potency comes from a doubtful curve fit.
# Assay: Primary qHTS for delayed death inhibitors of the malarial parasite plastid, 96 hour incubation
# Settings: P. falciparum luciferase reporter growth; series mostly up to 28.7 µM; activity change, negative = inhibition: at the top concentration
# Outline: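 Two parasite generations (96 h, 37 C, 5% CO2) of compound exposure in infected erythrocytes (0.05% parasitemia, 2% hematocrit). Luciferase-reporter P. falciparum; decreased luminescence indicates inhibited growth, aimed at apicoplast-acting delayed death.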
# On the % scale 0 is the no-effect control and ±100 the full control effect; potency means the concentration at half of the fitted maximal effect.
Structure (SMILES),Potency,"activity change, negative = inhibition"
O=C1C(Cl)=C(NCc2cccnc2)C(=O)c2ccccc21,active: 8.28 µM,
O=C(CSCc1ccc(F)cc1)Nc1ccc(F)cc1,active: 6.57 µM,
CCC(CC)C(=O)OCC(=O)Nc1cccc([N+](=O)[O-])c1,,inactive: 23.8%
O=C(O)CCc1ccc(-c2cccs2)n1-c1ccc(C(=O)O)cc1,"inconclusive: 10.4 µM [inhibitor, single point]",
O=C(NCc1cccc(Cl)c1)c1ccc(N2CC3CC(C2)c2cccc(=O)n2C3)c(NC(=O)c2cccnc2)c1 (stereo not given),,inactive: -14%
CCOC(=O)c1c(NC(=O)COC(=O)c2c(C)noc2C)sc2c1CCC2,"inconclusive: 7.38 µM [inhibitor, partial curve, poor fit]",
NC(=O)Cc1nc(-c2ccccc2)cs1,"inconclusive: 8.28 µM [inhibitor, partial curve, poor fit]",
COC(=O)C1=C(c2ccc(Cl)c(C(F)(F)F)c2)C[C@@H]2CC[C@H]1N2C(=O)NC1CC1,active: 5.86 µM,
Cc1c(OC(C)C(=O)NCc2ccncc2)ccc2c3c(c(=O)oc12)CCC3 (stereo not given),active: 9.28 µM,
Cc1ccc2c(c1)N(C(=O)CCC(=O)NC1CCCCCC1)CC(C)O2 (stereo not given),,inactive: 5.93%
Cc1sc2ncn(CC(=O)NCC(=O)N(C)Cc3ccccc3)c(=O)c2c1C,"inconclusive: 8.28 µM [inhibitor, partial curve, poor fit]",
CN(C(=O)COC(=O)c1ccccc1Nc1ccccc1)c1c(N)n(Cc2ccccc2)c(=O)[nH]c1=O,"inconclusive: 14.7 µM [inhibitor, single point]",
CN1CCN(/N=C/c2nc(-c3ccccc3)n3ccccc23)CC1,,inactive: 171%
CCOC(=O)c1c(C)[nH]c(C)c1S(=O)(=O)N(C)CC(=O)NCc1cccc(C)c1,active: 5.86 µM,
Cc1nn(-c2ccccc2)c(Cl)c1C(=O)N1CCN(c2ncnc3c2cnn3-c2ccccc2)CC1,"inconclusive: 10.4 µM [inhibitor, partial curve, poor fit]",
CC(C)n1nc(C(=O)NCCc2ccc(S(N)(=O)=O)cc2)c2ccccc2c1=O,"inconclusive: 7.38 µM [inhibitor, partial curve]",
O=C(Nc1cccc(NC(=O)c2ccco2)c1)c1cnccn1,"inconclusive: 10.4 µM [inhibitor, partial curve, poor fit]",
COc1ccccc1C1NC(=O)NC(C)=C1C(C)=O (stereo not given),"inconclusive: 16.5 µM [inhibitor, single point]",
CCCN1C(=O)/C(=C/c2ccc(C)s2)SC1=Nc1ccc(OC)cc1,"inconclusive: 18.5 µM [inhibitor, single point]",
COc1cc(OC)c(OC)cc1CNC(=O)c1ccc(COc2ccccc2)cc1,"inconclusive: 5.22 µM [inhibitor, partial curve, poor fit]",
COc1ccc(SCCCn2c(=O)c3c(ncn3C)n(C)c2=O)cc1,"inconclusive: 10.4 µM [inhibitor, partial curve, poor fit]",
COc1ccccc1C(=O)Nc1ccc(S(=O)(=O)Nc2cc(C)nc(C)n2)cc1,"inconclusive: 20.8 µM [inhibitor, partial curve, poor fit]",
CC(C)(C)c1ccc(C(=O)O)c(C(=O)c2ccccc2)c1,,inactive: 23%
O=C(NC1CCCN(CCc2ccccc2)C1)c1c[nH]c2ccccc12 (stereo not given),"inconclusive: 9.28 µM [inhibitor, single point]",

Structure (SMILES),Potency,"activity change, negative = inhibition"
Cc1c(CCC(=O)O)c(=O)oc2c(C)c3occ(-c4ccc(Cl)cc4)c3cc12,"inconclusive: 6.57 µM [inhibitor, partial curve, poor fit]",
CC(NC(=O)C(=O)NN=C1CCCCCCC1)c1ccccc1 (stereo not given),,inactive: 7.37%
CCOC(=O)c1c(C)n(-c2ccccc2)c2ccc(OCCN(C)C)cc12,,inactive: -13%
COc1ccc(C(=O)Cn2cnc3ccccc3c2=O)cc1,,inactive: 131%
O=C(CN1CCCCCCC1)NC(=O)NC1CCCCC1,"inconclusive: 0.0294 µM [inhibitor, full curve, poor fit]",
COc1cc(C(=O)Nc2cccc(C)c2C)ccc1OCC(=O)N1CCOCC1,,inactive: 18%
CCc1ccc(S(=O)(=O)NCc2csc(-c3cccnc3)n2)s1,active: 0.738 µM,
Cc1ccc(C)c(N=Cc2cc3c(cc2[N+](=O)[O-])OCO3)c1,active: 0.0415 µM,
C/C(=N/NC(=O)CNC(=O)Cc1ccccc1)c1ccc(Cl)cc1,,inactive: 46.6%
CC(C)Oc1ccc(C(=O)NCCCNC(=O)c2ccccn2)cc1,,inactive: -19.9%
O=C(NCCNc1ccc(Cl)cc1[N+](=O)[O-])c1ccccc1F,"inconclusive: 11.7 µM [inhibitor, single point]",
C=CCOC(=O)C1=C(C)NC(SC)=C(C#N)C1c1cccs1 (stereo not given),"inconclusive: 6.57 µM [inhibitor, partial curve]",
CC(C)CN(C(=O)COC(=O)CCc1c[nH]c2ccccc12)c1c(N)n(Cc2ccccc2)c(=O)[nH]c1=O,,inactive: 0%
CC(c1ccccc1)N1C(=O)C2C3CCC(C3)C2C1=O (stereo not given),"inconclusive: 0.0037 µM [inhibitor, full curve, poor fit]",
CC1Oc2ccccc2N(CC(=O)N2CCc3ccccc32)C1=O (stereo not given),,inactive: -16.9%
FC(F)(F)c1ccnc(Sc2n[nH]c(C(F)(F)F)n2)c1,"inconclusive: 0.0415 µM [inhibitor, full curve, poor fit]",
CCc1cc(Cn2nc(-c3ccccc3)cc2C(=O)NCc2cccc(C(F)(F)F)c2)on1,"inconclusive: 18.5 µM [inhibitor, single point]",
COc1ccc(CCNC(=O)CSC(=O)c2ccccc2)cc1OC,"inconclusive: 14.7 µM [inhibitor, single point]",
CCc1ccc(NC(=O)C(C)OC(=O)c2c(C)nn(Cc3ccccc3)c2Cl)cc1 (stereo not given),"inconclusive: 18.5 µM [inhibitor, single point]",
O=[N+]([O-])c1ccc(N2CCN(c3ccccc3F)CC2)nc1,,inactive: 81.8%
O=C1CN(c2nc(-c3cccnc3)nc3sc4c(c23)CCCC4)CCN1,"inconclusive: 11.7 µM [inhibitor, single point]",
COc1ccc(S(=O)(=O)N2CCN(C(=O)c3cc(C)on3)CC2)cc1,"inconclusive: 18.5 µM [inhibitor, single point]",
CC(=O)NC1(C(F)(F)F)NC(=O)N(CC(C)C)C1=O (stereo not given),"inconclusive: 4.15 µM [inhibitor, single point]",
O=C(c1cnn2ccccc12)N1CCCc2ccccc21,"inconclusive: 5.22 µM [inhibitor, partial curve, poor fit]",

# Arranged by formula weight (largest number first): part of the list above
Structure (SMILES),Potency,"activity change, negative = inhibition"
CCc1ccc(NC(=O)C(C)OC(=O)c2c(C)nn(Cc3ccccc3)c2Cl)cc1 (stereo not given),"inconclusive: 18.5 µM [inhibitor, single point]",
COc1cc(C(=O)Nc2cccc(C)c2C)ccc1OCC(=O)N1CCOCC1,,inactive: 18%
CCc1ccc(S(=O)(=O)NCc2csc(-c3cccnc3)n2)s1,active: 0.738 µM,

# Continued.

Structure (SMILES),Potency,"activity change, negative = inhibition"
ONC=Nc1cccc2nonc12,,inactive: 39.3%
CCC(=O)N(CCC(c1ccccc1)c1ccco1)Cc1cccs1 (stereo not given),"inconclusive: 13.1 µM [inhibitor, partial curve, poor fit]",
COc1ccc(-c2cc3c(=O)n(CC(=O)N4CCCCC4)ncn3n2)cc1,,inactive: 13.9%
CC(Nc1nc(N2CCN(S(C)(=O)=O)CC2)nc2ccccc12)c1ccccc1 (stereo not given),"inconclusive: 16.5 µM [inhibitor, single point]",
NC(=O)c1cc(S(=O)(=O)NCCc2ccc(Cl)cc2)cs1,,inactive: -9.6%
c1ccc2c(N3CCOCC3)nc(N3CCOCC3)nc2c1,active: 4.15 µM,
Cc1ccc(C)c(OCCC(=O)N2CCN(S(=O)(=O)c3ccc([N+](=O)[O-])cc3)CC2)c1,"inconclusive: 9.28 µM [inhibitor, partial curve, poor fit]",
COC(=O)c1ccccc1NC1OC(=O)c2ccccc21 (stereo not given),"inconclusive: 13.1 µM [inhibitor, partial curve, poor fit]",
N=C1C(c2ccccc2)=C(O)CN1c1ccccc1N1CCOCC1,"inconclusive: 18.5 µM [inhibitor, single point]",
CC1CCN(CC(O)COCCC23CC4CC(CC(C4)C2)C3)CC1 (stereo not given),"inconclusive: 10.4 µM [inhibitor, partial curve, poor fit]",
COc1cc(C(=O)N2CCN(c3ccccc3)CC2)c([N+](=O)[O-])cc1OC,"inconclusive: 14.7 µM [inhibitor, single point]",
CCC(C)n1c(C)nc2c(c1=O)c1nc3ccccc3nc1n2CCC1=CCCCC1 (stereo not given),active: 11.7 µM,
COc1ccc(Cc2nc3ccc(C(=O)NCC4COCCO4)cc3o2)cc1 (stereo not given),"inconclusive: 10.4 µM [inhibitor, single point]",
COc1cccc(NC(=O)C2C3CCC4C(CCC32)C4(Cl)Cl)c1 (stereo not given),,inactive: -12.1%
CC(C)(C)c1ccccc1OCCOCCSc1ncccn1,"inconclusive: 9.28 µM [inhibitor, single point]",
COc1cc(NC(=O)NC2Cc3ccccc3C2)cc(OC)c1,"inconclusive: 18.5 µM [inhibitor, single point]",
Cc1cc(C=O)c(C)n1-c1sc2c(c1C(=O)O)CCCC2,"inconclusive: 18.5 µM [inhibitor, single point]",
CC(C(=O)N1CCc2ccccc21)n1cnc2c1c(=O)n(C)c(=O)n2C (stereo not given),,inactive: -14%
COCCNC(=O)C(NC(=O)C1CCCCC1)C12CC3CC(CC(C3)C1)C2 (stereo not given),active: 1.47 µM,
COc1cccc(/C(O)=C2\C(=O)C(=O)N(c3ccccn3)C2c2cccc(OC)c2OC)c1 (stereo not given),"inconclusive: 11.7 µM [inhibitor, partial curve, poor fit]",
O=C1Nc2cccnc2N(C(=O)CCl)c2ccccc21,"inconclusive: 8.28 µM [inhibitor, partial curve, poor fit]",
CC(C)N1CCc2c(sc(NC(=O)c3ccc(C(=O)c4ccccc4)cc3)c2C(N)=O)C1,"inconclusive: 9.28 µM [inhibitor, partial curve, poor fit]",
